From patent publication US20060135516A1, “3-(Carbonyl) 1h-indazole compounds as cyclin dependent kinases (cdk) inhibitors” (Astex Technology, Ltd., priority 2002, published 2006)
Some of these results come from one statement about several compounds together.

Biological target: T1, CDK2/CyclinA (Homo sapiens, UniProt P24941)
T1 construct: purchased Upstate Biotechnology
Experiment: Measurement of CDK2 Kinase Inhibitory Activity (IC50)
Assay type: biochemical
Conditions: for % inhibition of the CDK2 activity: at a concentration of 0.03 micromoles, stated as the alternative to IC50 less than 20 micromoles; for IC50: read-out: IC50 (concentration of test compound required to inhibit 50% of the CDK2 activity), stated as an alternative: IC50 less than 20 micromoles OR at least 50% inhibition at 0.03 micromoles

| Structure (SMILES) | % inhibition of the CDK2 activity | IC50 |
| --- | --- | --- |
| O=C(Nc1ccc(F)cc1)c1n[nH]c2ccc3nc(-n4cccc4)sc3c12 [Example 35, 2-Pyrrol-1-yl-6H-pyrazolo[4′,3′:3,4]benzo[1,2-d]thiazole-8-carboxylic acid (4-fluoro-phenyl)-amide] | at least 50% | < 20 µM |
| O=C(Nc1ccc(F)cc1)c1n[nH]c2ccc3nc(NC4CC4)sc3c12 [Example 36, 2-cyclopropylamino-6H-pyrazolo[4′, 3′:3,4]benzo[1,2-d]thiazole-8-carboxylic acid (4-fluoro-phenyl)-amide] | at least 50% | < 20 µM |
| O=C(Nc1ccc(F)cc1)c1n[nH]c2ccc3nc(CO)sc3c12 [Example 37, 2-Hydroxymethyl-6H-pyrazolo[4′,3′:3,4]benzo[1,2-d]thiazole-8-carboxylic acid (4-fluoro-phenyl)-amide] | at least 50% | < 20 µM |
| Nc1nc2ccc3[nH]nc(C(=O)NC4CCN(Cc5ccccc5)C4)c3c2s1 (centres unmarked) [Example 38] | at least 50% | < 20 µM |
| CC(NC(=O)c1n[nH]c2ccc3nc(N)sc3c12)c1ccccc1 (centres unmarked) [Example 39] | at least 50% | < 20 µM |
| C[C@@H](NC(=O)c1n[nH]c2ccc3nc(N)sc3c12)c1ccccc1 [Example 40] | – | < 20 µM |
| Nc1nc2ccc3[nH]nc(C(=O)NCC4CCNCC4)c3c2s1 [Example 41] | at least 50% | < 20 µM |
| CCN1CCCC1CNC(=O)c1n[nH]c2ccc3nc(N)sc3c12 (centres unmarked) [Example 42] | at least 50% | < 20 µM |
| Nc1nc2ccc3[nH]nc(C(=O)NC(CO)c4ccccc4)c3c2s1 (centres unmarked) [Example 43] | at least 50% | < 20 µM |
